Measured values reported in publication PMC12092681.

Biological target: T1, GST-tagged NUSAP1 wild type (GST-NUSAP1-WT) (human) (UniProt Q9BXS6)
T1 sequence: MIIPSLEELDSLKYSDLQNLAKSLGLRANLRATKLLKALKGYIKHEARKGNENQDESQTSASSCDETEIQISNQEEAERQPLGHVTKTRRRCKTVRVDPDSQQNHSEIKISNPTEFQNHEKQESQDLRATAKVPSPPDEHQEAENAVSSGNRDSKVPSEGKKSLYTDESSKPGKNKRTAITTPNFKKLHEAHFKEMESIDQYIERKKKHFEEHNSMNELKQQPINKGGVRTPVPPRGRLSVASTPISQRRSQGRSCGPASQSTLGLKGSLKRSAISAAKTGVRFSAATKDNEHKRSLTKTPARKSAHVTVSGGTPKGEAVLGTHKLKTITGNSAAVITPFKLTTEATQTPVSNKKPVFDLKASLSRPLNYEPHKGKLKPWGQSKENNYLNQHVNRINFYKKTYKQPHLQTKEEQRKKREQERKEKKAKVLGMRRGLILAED
Assay: pull-down; GST-NUSAP1 on glutathione-Sepharose beads incubated with purified His-tagged prey at 4 °C for 4 h in 20 mM Tris-HCl pH 7.5, 150 mM NaCl, 0.5% Triton X-100; washed with 300 mM NaCl; blots with anti-GST and anti-His; both purified

His-tagged Notch2 intracellular domain (N2ICD) (domain or fragment)
binding: no binding

These are yes or no findings as the source states them, for the method shown. Sequences can lack the tags named with a protein.
